From the supplement of paper PMC10849652
This is one part of the list.

Chains of the proteins cited; added tags and fusions are not shown. Lines headed by an entry give the natural chain unless they say otherwise; changes in a name come on top.
UniProt Q8NBA8: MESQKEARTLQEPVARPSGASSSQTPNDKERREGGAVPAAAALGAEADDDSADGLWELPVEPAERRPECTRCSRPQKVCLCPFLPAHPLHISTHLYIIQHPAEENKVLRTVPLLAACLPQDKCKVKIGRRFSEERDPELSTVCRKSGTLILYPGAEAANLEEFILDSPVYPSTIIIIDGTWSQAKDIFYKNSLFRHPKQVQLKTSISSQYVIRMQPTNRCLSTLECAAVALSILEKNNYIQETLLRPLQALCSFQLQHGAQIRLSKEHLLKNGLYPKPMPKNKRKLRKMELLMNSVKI
UniProt P25685, whole entry, looked up: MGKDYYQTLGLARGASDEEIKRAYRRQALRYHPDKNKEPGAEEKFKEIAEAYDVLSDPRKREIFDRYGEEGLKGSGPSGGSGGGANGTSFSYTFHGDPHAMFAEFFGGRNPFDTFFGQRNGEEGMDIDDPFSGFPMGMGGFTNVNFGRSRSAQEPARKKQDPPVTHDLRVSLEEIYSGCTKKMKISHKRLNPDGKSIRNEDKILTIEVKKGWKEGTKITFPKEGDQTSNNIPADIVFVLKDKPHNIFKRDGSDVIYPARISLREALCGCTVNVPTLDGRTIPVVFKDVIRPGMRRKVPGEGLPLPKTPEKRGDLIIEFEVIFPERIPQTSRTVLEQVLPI
UniProt P23919: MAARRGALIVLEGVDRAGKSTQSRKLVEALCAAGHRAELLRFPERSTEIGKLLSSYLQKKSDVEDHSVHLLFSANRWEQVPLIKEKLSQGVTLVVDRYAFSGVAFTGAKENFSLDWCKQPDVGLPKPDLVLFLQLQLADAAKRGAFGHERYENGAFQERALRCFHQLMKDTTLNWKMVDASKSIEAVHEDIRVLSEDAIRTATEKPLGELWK
UniProt Q96FN9: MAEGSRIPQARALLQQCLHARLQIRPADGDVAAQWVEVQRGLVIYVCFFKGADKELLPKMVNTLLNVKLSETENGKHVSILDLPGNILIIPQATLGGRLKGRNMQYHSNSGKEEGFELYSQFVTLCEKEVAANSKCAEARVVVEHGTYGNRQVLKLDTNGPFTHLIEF
UniProt Q9H2P9: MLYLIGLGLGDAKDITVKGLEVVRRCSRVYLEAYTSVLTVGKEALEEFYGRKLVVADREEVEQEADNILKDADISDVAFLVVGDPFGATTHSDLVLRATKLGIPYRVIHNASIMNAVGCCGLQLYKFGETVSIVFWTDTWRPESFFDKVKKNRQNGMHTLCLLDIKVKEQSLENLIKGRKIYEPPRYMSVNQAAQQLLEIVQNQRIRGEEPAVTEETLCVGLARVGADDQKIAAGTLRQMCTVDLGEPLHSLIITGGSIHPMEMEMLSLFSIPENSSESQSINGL
UniProt Q9NX74: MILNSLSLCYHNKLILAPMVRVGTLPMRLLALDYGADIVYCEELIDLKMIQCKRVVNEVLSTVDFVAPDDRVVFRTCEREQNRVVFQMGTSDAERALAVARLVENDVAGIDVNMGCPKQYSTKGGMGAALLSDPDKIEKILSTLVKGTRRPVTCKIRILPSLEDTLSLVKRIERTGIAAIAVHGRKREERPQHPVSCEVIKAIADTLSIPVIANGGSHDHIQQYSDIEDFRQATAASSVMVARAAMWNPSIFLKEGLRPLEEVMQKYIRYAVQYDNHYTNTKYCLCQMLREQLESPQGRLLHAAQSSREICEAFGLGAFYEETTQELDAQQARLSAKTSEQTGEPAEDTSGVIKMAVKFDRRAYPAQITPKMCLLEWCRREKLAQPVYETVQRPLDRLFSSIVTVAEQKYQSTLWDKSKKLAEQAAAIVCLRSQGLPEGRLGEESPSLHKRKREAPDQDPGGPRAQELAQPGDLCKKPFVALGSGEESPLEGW
UniProt Q96FX2: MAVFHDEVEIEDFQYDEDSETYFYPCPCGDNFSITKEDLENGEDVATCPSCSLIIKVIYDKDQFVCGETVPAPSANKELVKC
UniProt Q6P2E9: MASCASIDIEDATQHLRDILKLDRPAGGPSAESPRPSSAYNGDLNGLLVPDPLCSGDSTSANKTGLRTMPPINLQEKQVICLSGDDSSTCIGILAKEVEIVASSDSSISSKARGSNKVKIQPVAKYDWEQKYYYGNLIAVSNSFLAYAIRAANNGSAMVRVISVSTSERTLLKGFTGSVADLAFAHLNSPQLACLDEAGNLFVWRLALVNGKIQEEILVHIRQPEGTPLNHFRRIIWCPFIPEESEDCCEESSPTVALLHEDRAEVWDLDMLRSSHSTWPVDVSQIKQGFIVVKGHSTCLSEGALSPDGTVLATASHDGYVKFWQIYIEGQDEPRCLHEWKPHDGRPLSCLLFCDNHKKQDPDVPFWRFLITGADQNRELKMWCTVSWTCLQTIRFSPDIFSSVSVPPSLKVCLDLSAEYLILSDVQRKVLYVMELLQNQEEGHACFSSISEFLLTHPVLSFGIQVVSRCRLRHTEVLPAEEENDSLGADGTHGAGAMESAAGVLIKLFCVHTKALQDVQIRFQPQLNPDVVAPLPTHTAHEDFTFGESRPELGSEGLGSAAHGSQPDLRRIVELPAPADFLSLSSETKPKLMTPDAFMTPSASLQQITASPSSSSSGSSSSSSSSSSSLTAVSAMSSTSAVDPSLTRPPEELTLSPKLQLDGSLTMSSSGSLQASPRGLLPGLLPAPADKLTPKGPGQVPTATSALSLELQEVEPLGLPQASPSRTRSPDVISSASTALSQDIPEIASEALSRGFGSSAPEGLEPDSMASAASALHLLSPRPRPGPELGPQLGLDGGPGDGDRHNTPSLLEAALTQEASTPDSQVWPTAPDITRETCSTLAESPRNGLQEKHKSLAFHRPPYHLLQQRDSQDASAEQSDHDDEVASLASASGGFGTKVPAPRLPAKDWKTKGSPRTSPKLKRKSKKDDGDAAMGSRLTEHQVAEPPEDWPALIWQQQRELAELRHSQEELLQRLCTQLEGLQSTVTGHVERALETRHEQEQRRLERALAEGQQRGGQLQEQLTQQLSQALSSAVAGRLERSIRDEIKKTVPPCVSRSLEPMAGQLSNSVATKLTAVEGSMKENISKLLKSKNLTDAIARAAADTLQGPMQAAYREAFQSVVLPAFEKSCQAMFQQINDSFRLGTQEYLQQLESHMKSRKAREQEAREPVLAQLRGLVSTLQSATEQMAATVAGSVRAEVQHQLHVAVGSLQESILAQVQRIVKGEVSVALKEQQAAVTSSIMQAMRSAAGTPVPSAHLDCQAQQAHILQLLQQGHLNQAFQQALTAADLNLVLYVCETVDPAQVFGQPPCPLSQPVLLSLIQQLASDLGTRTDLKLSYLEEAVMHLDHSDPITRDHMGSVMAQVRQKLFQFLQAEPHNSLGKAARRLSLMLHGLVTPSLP

How the values were obtained:
Assay in all cases: log2 fold change, soluble protein after heating vs DMSO (PISA); higher = thermal stabilisation; K562 cells, 10 uM, 30 min; active = over 0.2 and 3.5 SD of the protein, either way, in both replicates (recomputed)
[1] = compound: CS(=O)(=O)c1ccc(-c2cnc(N)c(C(=O)Nc3ccccc3)n2)cc1
Procedure, shortened: (§1)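 K562 cells at 2×10^6 cells/mL were given 10 μM compound for 30 min. Aliquots then went through 3 min of heating across 48°C-58°C, were pooled, and were extracted in PBS with 0.5% NP-40 at 4°C, and the supernatant after 21,000xg for 90 min was quantified by TMTpro 16plex LC-MS/MS with channel sums equalised. Thermal stability relative to control samples, from duplicates, is given as log2 fold change.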

crizotinib = compound: C[C@@H](Oc1cc(-c2cnn(C3CCNCC3)c2)cnc1N)c1c(Cl)ccc(F)c1Cl [crizotinib]
Procedure, shortened: as §1

[2] = compound: C[C@@H]1COCCN1C2=NC(=NC(=C2)C3(CC3)S(=O)(=O)C)C4=C5C=CNC5=CC=C4
Procedure, shortened: as §1

[3] = compound: C[C@H](C1=CC=C(C=C1)C(=O)NC2=C3C=CNC3=NC=C2)N
Procedure, shortened: as §1

gandotinib = compound: Cc1cc(Nc2cc(CN3CCOCC3)c3nc(C)c(Cc4ccc(Cl)cc4F)n3n2)n[nH]1 [gandotinib]
Procedure, shortened: as §1

[4] = compound: Cc1cc(SCc2sc(-c3ccc(C(F)(F)F)cc3)nc2C)ccc1OCC(=O)O
Procedure, shortened: as §1

doramapimod = compound: Cc1ccc(-n2nc(C(C)(C)C)cc2NC(=O)Nc2ccc(OCCN3CCOCC3)c3ccccc23)cc1 [doramapimod]
Procedure, shortened: as §1

ispinesib = compound: Cc1ccc(C(=O)N(CCCN)[C@@H](c2nc3cc(Cl)ccc3c(=O)n2Cc2ccccc2)C(C)C)cc1 [ispinesib]
Procedure, shortened: as §1

bafetinib = compound: Cc1ccc(NC(=O)c2ccc(CN3CC[C@H](N(C)C)C3)c(C(F)(F)F)c2)cc1Nc1nccc(-c2cncnc2)n1 [bafetinib]
Procedure, shortened: as §1

[5] = compound: Cc1cccc(CC(=O)N2CCc3c2ccc(-c2cn(C)c4ncnc(N)c24)c3F)n1
Procedure, shortened: as §1

nilotinib = compound: Cc1cn(-c2cc(NC(=O)c3ccc(C)c(Nc4nccc(-c5cccnc5)n4)c3)cc(C(F)(F)F)c2)cn1 [nilotinib]
Procedure, shortened: as §1

[6] = compound: Cc1nc(Nc2n[nH]c3c2CN(C(=O)N[C@H](CN(C)C)c2ccccc2)C3(C)C)c2sccc2n1
Procedure, shortened: as §1

dasatinib = compound: Cc1nc(Nc2ncc(C(=O)Nc3c(C)cccc3Cl)s2)cc(N2CCN(CCO)CC2)n1 [dasatinib]
Procedure, shortened: as §1

[7] = compound: Cc1ncc(-c2ccnc(Nc3ccc(S(C)(=O)=O)cc3)n2)n1C(C)C
Procedure, shortened: as §1

[8] = compound: Cn1cc(-c2ccc3c(c2)CCN3C(=O)Cc2cccc(C(F)(F)F)c2)c2c(N)ncnc21
Procedure, shortened: as §1

[9] = compound: Cn1cc(-c2ccc3nnc(C(F)(F)c4ccc5ncccc5c4)n3n2)cn1
Procedure, shortened: as §1

tipifarnib = compound: Cn1cncc1[C@@](N)(c1ccc(Cl)cc1)c1ccc2c(c1)c(-c1cccc(Cl)c1)cc(=O)n2C [tipifarnib]
Procedure, shortened: as §1

mubritinib = compound: FC(F)(F)c1ccc(/C=C/c2nc(COc3ccc(CCCCn4ccnn4)cc3)co2)cc1 [mubritinib]
Procedure, shortened: as §1

duvelisib = compound: C[C@H](Nc1ncnc2nc[nH]c12)c1cc2cccc(Cl)c2c(=O)n1-c1ccccc1 [duvelisib]
Procedure, shortened: as §1

tozasertib = compound: Cc1cc(Nc2cc(N3CCN(C)CC3)nc(Sc3ccc(NC(=O)C4CC4)cc3)n2)n[nH]1 [tozasertib]
Procedure, shortened: as §1

Row | Target | log2 fold change [1] | log2 fold change (crizotinib) | log2 fold change [2] | log2 fold change [3] | log2 fold change (gandotinib) | log2 fold change [4] | log2 fold change (doramapimod) | log2 fold change (ispinesib) | log2 fold change (bafetinib) | log2 fold change [5] | log2 fold change (nilotinib) | log2 fold change [6] | log2 fold change (dasatinib) | log2 fold change [7] | log2 fold change [8] | log2 fold change [9] | log2 fold change (tipifarnib) | log2 fold change (mubritinib) | log2 fold change (duvelisib) | log2 fold change (tozasertib)
1 | DTWD2 (UniProt Q8NBA8) | inactive: 0.06 | inactive: 0.133 | inactive: 0.137 | inactive: -0.103 | inactive: 0.027 | inactive: 0 | inactive: 0.009 | inactive: -0.092 | inactive: -0.023 | inactive: -0.008 | inactive: 0.065 | inactive: -0.019 | inactive: 0.126 | inactive: 0.022 | inactive: 0.215 | inactive: 0.096 | inactive: -0.071 | inactive: -0.087 | – | –
2 | DNAJB1 (UniProt P25685) | inactive: -0.004 | inactive: -0.004 | inactive: 0.084 | inactive: 0 | inactive: -0.041 | inactive: 0.059 | inactive: -0.018 | inactive: 0.019 | inactive: -0.026 | inactive: 0.013 | inactive: -0.042 | inactive: -0.058 | inactive: -0.064 | inactive: 0.026 | inactive: 0.035 | inactive: 0.02 | inactive: -0.026 | inactive: 0.01 | – | –
3 | DTYMK (UniProt P23919) | inactive: 0.046 | inactive: -0.146 | inactive: 0 | inactive: -0.022 | inactive: -0.217 | inactive: -0.009 | inactive: -0.025 | inactive: 0.032 | inactive: 0.044 | inactive: 0.007 | inactive: 0.042 | inactive: 0.041 | inactive: -0.151 | inactive: -0.029 | inactive: 0.045 | inactive: 0.002 | inactive: -0.019 | inactive: 0.078 | – | –
4 | DPY19L1, A0A1B0GW05 | inactive: 0.031 | inactive: -0.034 | inactive: 0.071 | inactive: 0.066 | – | inactive: 0.034 | inactive: 0.048 | inactive: 0.115 | inactive: 0.078 | – | inactive: -0.04 | inactive: 0.004 | inactive: 0.043 | inactive: -0.029 | inactive: -0.076 | inactive: -0.102 | inactive: 0.019 | inactive: 0.114 | inactive: 0.052 | inactive: -0.021
5 | DTD2 (UniProt Q96FN9) | inactive: 0.183 | inactive: 0.022 | inactive: -0.095 | inactive: -0.05 | inactive: 0.092 | inactive: -0.03 | inactive: 0.057 | – | – | inactive: -0.194 | inactive: 0.028 | inactive: -0.103 | inactive: -0.024 | inactive: -0.002 | inactive: 0.034 | – | inactive: 0.267 | – | inactive: 0.052 | inactive: -0.002
6 | DPH5 isoform 5 (UniProt Q9H2P9) | inactive: 0.017 | inactive: 0.092 | inactive: 0.072 | inactive: -0.046 | inactive: -0.011 | inactive: -0.01 | inactive: -0.025 | inactive: 0.076 | inactive: 0.025 | inactive: 0.037 | inactive: 0.013 | inactive: -0.023 | active: 0.253 | inactive: 0.003 | inactive: 0.085 | inactive: 0.006 | inactive: -0.121 | inactive: 0.049 | – | –
7 | DUS2 (UniProt Q9NX74) | inactive: -0.017 | inactive: 0.048 | inactive: 0.084 | inactive: 0.045 | inactive: 0.036 | inactive: 0.062 | inactive: -0.006 | inactive: 0.097 | inactive: -0.017 | inactive: -0.025 | inactive: -0.243 | inactive: -0.032 | inactive: -0.07 | inactive: 0.014 | inactive: -0.072 | inactive: 0.01 | inactive: 0.094 | inactive: 0.045 | – | –
8 | DPH3 (UniProt Q96FX2) | inactive: -0.144 | inactive: 0.089 | inactive: -0.05 | inactive: 0 | inactive: 0.054 | inactive: -0.306 | inactive: -0.104 | – | inactive: 0.195 | inactive: -0.04 | inactive: 0.099 | inactive: 0.038 | inactive: 0.014 | inactive: -0.014 | inactive: -0.015 | – | inactive: -0.025 | inactive: -0.079 | inactive: 0.139 | inactive: -0.148
9 | EDC4 (UniProt Q6P2E9) | inactive: -0.064 | inactive: 0.179 | inactive: 0.003 | inactive: -0.092 | inactive: -0.18 | inactive: 0.033 | inactive: 0.005 | inactive: -0.031 | inactive: 0.006 | inactive: 0 | inactive: 0.013 | inactive: -0.077 | inactive: -0.018 | inactive: -0.119 | inactive: -0.046 | inactive: -0.031 | inactive: -0.038 | inactive: -0.019 | – | –

Reformatted tab-delimited: part of the list above.
Row	Target	log2 fold change [1]	log2 fold change (crizotinib)	log2 fold change [2]	log2 fold change [3]	log2 fold change (gandotinib)	log2 fold change [4]	log2 fold change (doramapimod)	log2 fold change (ispinesib)	log2 fold change (bafetinib)	log2 fold change [5]	log2 fold change (nilotinib)	log2 fold change [6]	log2 fold change (dasatinib)	log2 fold change [7]	log2 fold change [8]	log2 fold change [9]	log2 fold change (tipifarnib)	log2 fold change (mubritinib)	log2 fold change (duvelisib)	log2 fold change (tozasertib)
1	DTWD2 (UniProt Q8NBA8)	inactive: 0.06	inactive: 0.133	inactive: 0.137	inactive: -0.103	inactive: 0.027	inactive: 0	inactive: 0.009	inactive: -0.092	inactive: -0.023	inactive: -0.008	inactive: 0.065	inactive: -0.019	inactive: 0.126	inactive: 0.022	inactive: 0.215	inactive: 0.096	inactive: -0.071	inactive: -0.087	–	–
2	DNAJB1 (UniProt P25685)	inactive: -0.004	inactive: -0.004	inactive: 0.084	inactive: 0	inactive: -0.041	inactive: 0.059	inactive: -0.018	inactive: 0.019	inactive: -0.026	inactive: 0.013	inactive: -0.042	inactive: -0.058	inactive: -0.064	inactive: 0.026	inactive: 0.035	inactive: 0.02	inactive: -0.026	inactive: 0.01	–	–
